In paper doi:10.1101/2023.12.07.570558 (bioRxiv, 2023):
Results are given in words; binding and its absence hold for the method and conditions named. In cells and extracts the contact can be indirect. Binding calls can cover weak binding; strength is not graded here. Tags and fused reporters may be left off the sequences shown.

Target: T1, Myc-tagged TULP3 (expressed in HEK293T cells) (human) (UniProt O75386)
T1 sequence: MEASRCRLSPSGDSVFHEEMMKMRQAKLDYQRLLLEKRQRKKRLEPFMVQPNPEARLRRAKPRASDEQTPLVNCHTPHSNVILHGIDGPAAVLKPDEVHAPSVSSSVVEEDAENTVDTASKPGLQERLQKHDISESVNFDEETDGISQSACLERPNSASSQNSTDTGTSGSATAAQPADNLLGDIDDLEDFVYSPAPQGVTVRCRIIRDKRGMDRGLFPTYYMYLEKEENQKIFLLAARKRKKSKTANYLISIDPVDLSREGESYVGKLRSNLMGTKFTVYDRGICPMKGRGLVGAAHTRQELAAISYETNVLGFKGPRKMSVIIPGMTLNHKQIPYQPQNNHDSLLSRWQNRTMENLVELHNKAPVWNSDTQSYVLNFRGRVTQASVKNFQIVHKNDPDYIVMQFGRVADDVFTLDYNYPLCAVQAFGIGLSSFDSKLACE
Assay: co-IP

binding: binds
Substance: HA-tagged SIRT3 (enzyme)
